Test results as given in the supplement of paper PMC12823440, “Inhibitors supercharge kinase turnover through native proteolytic circuits” (Nature, 2025).
This is one part of the list. The calls rarely recur for the same compound in another form.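 Kinases, fused to nanoluciferase, were expressed in K562 cells; luminescence was measured every 4 h from 2 to 18 h as percent of control (DMSO = 100%, positive control = 0%). A time point is decreased if signal falls significantly (2 sigma). Hits were called by the authors by a rule that is not shown; the count of time points alone does not decide it.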

Protein sequences, listed by entry. Tags and fused reporters are not part of them. Lines headed by an entry give the natural chain unless they say otherwise; changes in a name come on top.
UniProt Q9Y616: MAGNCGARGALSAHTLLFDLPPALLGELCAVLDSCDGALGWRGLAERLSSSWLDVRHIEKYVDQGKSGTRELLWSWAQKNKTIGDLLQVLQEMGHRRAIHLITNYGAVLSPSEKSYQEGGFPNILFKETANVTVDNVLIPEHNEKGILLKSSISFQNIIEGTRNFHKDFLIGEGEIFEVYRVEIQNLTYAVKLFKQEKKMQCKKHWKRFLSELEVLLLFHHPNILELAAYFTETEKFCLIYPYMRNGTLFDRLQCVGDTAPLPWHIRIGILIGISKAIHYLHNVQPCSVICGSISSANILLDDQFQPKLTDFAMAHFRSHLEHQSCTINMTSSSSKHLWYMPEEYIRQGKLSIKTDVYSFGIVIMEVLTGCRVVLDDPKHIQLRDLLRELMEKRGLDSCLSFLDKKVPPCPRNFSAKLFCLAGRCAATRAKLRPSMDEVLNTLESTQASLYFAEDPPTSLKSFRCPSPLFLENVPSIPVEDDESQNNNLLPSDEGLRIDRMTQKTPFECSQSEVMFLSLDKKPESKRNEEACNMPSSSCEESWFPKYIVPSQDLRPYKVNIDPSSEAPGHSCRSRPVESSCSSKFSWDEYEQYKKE
UniProt P53667: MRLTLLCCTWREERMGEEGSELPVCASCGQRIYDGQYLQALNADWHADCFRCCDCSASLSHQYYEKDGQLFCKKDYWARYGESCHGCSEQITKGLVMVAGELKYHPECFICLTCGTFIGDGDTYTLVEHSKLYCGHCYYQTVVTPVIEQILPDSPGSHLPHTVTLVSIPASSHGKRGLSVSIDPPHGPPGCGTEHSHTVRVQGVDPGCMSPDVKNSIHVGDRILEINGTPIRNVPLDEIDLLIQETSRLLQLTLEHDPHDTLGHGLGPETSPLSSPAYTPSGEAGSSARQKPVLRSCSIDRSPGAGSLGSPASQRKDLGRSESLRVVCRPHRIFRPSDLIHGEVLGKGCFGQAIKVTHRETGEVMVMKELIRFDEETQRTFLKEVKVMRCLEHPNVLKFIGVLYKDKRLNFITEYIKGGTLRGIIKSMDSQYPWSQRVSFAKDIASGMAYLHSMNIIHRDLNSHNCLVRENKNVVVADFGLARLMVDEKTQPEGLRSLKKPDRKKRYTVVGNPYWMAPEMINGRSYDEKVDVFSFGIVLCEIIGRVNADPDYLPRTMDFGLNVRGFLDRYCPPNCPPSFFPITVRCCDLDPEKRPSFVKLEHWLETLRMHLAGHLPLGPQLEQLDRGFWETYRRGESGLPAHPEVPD
UniProt P53671: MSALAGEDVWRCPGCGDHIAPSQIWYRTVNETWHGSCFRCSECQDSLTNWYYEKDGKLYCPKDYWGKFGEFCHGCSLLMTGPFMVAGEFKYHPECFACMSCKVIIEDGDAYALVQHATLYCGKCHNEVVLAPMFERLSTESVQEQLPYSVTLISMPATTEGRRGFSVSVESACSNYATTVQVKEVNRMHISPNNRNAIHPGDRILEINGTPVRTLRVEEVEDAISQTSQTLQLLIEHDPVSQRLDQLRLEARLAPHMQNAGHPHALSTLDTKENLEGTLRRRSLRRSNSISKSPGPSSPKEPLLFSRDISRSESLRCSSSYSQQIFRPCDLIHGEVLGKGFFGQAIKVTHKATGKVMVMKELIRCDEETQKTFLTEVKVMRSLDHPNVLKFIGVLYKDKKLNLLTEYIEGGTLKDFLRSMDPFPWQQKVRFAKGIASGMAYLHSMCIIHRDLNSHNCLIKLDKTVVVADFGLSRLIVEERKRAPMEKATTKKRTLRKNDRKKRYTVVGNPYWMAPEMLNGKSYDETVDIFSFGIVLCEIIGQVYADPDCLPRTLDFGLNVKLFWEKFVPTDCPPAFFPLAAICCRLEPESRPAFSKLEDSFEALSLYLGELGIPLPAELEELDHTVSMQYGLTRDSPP
UniProt P07948: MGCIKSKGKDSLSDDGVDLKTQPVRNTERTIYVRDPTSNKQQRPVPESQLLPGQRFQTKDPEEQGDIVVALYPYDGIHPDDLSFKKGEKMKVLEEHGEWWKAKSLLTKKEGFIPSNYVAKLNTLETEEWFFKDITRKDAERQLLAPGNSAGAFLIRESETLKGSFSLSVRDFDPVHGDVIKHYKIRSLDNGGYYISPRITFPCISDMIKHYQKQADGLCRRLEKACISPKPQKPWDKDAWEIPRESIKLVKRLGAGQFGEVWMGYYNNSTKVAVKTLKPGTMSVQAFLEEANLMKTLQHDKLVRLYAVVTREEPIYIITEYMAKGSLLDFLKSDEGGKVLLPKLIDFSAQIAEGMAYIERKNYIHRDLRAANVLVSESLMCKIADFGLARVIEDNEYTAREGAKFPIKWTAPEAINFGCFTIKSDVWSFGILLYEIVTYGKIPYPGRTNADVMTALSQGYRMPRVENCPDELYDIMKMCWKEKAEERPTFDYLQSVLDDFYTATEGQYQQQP
UniProt P31152, whole entry: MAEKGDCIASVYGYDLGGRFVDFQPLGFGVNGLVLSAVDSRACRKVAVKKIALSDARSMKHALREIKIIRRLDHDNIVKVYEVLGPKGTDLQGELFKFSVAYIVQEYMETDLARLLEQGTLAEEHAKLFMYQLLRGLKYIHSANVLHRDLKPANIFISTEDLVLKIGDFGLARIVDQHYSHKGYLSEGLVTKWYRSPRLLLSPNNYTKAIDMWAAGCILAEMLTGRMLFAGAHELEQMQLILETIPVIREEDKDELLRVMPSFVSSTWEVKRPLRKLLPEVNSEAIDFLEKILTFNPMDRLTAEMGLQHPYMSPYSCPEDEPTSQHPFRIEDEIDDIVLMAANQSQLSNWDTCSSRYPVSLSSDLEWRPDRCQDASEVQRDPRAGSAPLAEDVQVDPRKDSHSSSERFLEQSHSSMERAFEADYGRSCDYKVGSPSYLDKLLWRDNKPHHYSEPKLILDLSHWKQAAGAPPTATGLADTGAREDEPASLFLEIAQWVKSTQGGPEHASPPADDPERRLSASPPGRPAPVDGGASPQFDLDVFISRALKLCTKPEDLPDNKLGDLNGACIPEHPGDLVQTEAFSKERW
UniProt Q9BUB5: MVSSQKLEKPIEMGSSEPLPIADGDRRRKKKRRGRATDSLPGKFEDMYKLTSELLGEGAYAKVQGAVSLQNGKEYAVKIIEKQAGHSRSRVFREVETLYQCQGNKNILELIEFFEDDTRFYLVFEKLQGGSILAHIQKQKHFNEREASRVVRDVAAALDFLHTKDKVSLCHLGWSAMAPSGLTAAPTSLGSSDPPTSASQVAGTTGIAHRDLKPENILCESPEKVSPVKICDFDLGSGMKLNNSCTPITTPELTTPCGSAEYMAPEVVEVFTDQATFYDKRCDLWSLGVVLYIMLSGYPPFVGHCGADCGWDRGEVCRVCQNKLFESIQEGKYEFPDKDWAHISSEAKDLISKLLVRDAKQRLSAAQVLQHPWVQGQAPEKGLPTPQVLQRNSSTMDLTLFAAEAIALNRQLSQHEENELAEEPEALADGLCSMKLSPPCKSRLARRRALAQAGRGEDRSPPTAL
UniProt Q16620, whole entry, looked up: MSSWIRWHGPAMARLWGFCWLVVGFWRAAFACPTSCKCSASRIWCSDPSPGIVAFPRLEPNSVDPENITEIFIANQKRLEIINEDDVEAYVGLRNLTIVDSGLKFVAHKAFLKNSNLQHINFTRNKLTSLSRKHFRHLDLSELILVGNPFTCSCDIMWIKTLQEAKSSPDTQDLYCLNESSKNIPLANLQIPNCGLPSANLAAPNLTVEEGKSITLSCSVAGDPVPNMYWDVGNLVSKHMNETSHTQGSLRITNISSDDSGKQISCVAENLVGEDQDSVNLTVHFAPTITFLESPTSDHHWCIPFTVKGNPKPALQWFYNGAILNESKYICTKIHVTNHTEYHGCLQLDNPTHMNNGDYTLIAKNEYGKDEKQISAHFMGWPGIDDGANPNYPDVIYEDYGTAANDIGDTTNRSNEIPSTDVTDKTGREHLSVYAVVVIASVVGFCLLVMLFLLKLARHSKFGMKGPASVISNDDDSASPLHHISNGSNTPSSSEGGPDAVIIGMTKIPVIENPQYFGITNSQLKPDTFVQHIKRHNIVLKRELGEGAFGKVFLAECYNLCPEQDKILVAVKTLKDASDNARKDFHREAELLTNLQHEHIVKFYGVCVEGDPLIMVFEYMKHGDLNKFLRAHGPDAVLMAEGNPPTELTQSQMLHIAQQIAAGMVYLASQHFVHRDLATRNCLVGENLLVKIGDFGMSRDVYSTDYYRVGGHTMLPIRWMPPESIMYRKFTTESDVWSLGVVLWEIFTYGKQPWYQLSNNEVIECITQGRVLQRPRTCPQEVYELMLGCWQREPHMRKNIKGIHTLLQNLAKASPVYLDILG
UniProt O96013: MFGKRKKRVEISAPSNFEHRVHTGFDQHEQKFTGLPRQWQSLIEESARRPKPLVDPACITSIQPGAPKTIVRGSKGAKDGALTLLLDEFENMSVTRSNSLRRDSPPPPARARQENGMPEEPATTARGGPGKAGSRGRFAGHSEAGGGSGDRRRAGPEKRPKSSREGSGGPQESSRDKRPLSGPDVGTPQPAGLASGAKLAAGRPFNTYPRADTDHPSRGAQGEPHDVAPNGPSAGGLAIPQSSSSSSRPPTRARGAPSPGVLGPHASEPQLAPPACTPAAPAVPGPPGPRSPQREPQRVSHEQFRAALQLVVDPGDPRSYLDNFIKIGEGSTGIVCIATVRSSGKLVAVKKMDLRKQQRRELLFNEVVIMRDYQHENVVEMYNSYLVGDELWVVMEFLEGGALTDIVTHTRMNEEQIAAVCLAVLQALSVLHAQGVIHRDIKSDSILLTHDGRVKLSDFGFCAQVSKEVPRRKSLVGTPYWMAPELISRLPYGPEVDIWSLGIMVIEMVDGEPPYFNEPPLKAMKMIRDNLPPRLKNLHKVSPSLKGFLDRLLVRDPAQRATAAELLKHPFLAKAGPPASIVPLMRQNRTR
UniProt P09619, whole entry: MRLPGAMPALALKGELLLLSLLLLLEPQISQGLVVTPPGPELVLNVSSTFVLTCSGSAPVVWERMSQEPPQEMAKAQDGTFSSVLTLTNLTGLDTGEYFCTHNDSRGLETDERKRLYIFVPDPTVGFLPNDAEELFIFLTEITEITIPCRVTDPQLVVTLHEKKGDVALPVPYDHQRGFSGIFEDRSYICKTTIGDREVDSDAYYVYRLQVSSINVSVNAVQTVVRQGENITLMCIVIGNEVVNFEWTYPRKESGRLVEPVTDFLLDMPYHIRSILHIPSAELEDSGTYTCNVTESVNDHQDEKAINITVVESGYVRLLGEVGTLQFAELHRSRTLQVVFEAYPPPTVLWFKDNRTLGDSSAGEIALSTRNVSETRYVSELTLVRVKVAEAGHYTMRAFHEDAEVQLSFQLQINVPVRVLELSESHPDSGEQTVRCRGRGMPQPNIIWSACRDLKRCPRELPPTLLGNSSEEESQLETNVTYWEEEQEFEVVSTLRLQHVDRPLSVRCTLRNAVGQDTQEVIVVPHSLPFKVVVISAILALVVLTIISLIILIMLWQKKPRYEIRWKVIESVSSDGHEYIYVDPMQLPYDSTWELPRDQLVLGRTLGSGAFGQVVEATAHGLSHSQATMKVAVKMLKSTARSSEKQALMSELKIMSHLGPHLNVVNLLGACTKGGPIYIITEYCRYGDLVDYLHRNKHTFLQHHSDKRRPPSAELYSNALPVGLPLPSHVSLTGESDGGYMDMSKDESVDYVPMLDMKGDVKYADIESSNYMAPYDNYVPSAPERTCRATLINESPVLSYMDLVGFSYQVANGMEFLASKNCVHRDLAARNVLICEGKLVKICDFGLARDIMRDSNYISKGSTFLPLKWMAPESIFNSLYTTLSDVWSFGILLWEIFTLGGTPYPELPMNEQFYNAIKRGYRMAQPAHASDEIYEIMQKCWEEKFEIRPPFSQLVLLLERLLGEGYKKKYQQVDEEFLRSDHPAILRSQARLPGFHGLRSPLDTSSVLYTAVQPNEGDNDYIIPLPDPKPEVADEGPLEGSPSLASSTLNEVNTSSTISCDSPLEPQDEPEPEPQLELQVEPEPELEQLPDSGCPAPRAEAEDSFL
UniProt Q15118, whole entry, looked up: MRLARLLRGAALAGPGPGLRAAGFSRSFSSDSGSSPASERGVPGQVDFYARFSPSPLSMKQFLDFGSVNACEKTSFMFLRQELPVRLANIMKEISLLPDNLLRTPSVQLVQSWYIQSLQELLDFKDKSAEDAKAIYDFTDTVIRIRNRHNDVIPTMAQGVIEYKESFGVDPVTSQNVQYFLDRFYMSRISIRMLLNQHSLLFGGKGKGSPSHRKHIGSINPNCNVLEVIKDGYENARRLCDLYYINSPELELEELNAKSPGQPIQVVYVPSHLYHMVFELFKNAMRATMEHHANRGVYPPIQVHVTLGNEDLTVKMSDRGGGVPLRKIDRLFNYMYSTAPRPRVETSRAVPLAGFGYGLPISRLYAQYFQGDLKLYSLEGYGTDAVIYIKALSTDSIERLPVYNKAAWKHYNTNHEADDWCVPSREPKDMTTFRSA

Columns and labels:
Assay in all cases: kinase-Nluc reporter destabilization hit call (1 = scored as downregulated) (binary); higher = compound decreases kinase abundance
Details in all cases: K562; 2-18 h
IRAK3 = IRAK3 (UniProt Q9Y616)
JAK1 = JAK1 (UniProt P23458)
LCK = LCK (UniProt P06239)
LIMK1 = LIMK1 (UniProt P53667)
LIMK2 = LIMK2 (UniProt P53671)
LMTK2 = LMTK2 (UniProt Q8IWU2)
LYN = LYN (UniProt P07948)
MAP2K1 = MAP2K1 (UniProt Q02750)
MAP2K2 = MAP2K2 (UniProt P36507)
MAP4K2 = MAP4K2 (UniProt Q12851)
MAPK1 = MAPK1 (UniProt P28482)
MAPK4 = MAPK4 (UniProt P31152)
MAPKAPK2 = MAPKAPK2 (UniProt P49137)
MKNK1 = MKNK1 (UniProt Q9BUB5)
NTRK2 = NTRK2 (UniProt Q16620)
NTRK3 = NTRK3 (UniProt Q16288)
PAK4 = PAK4 (UniProt O96013)
PBK = PBK (UniProt Q96KB5)
PDGFRB = PDGFRB (UniProt P09619)
PDK1 = PDK1 (UniProt Q15118)

SMILES	kinase-Nluc reporter destabilization hit call (IRAK3)	kinase-Nluc reporter destabilization hit call (JAK1)	kinase-Nluc reporter destabilization hit call (LCK)	kinase-Nluc reporter destabilization hit call (LIMK1)	kinase-Nluc reporter destabilization hit call (LIMK2)	kinase-Nluc reporter destabilization hit call (LMTK2)	kinase-Nluc reporter destabilization hit call (LYN)	kinase-Nluc reporter destabilization hit call (MAP2K1)	kinase-Nluc reporter destabilization hit call (MAP2K2)	kinase-Nluc reporter destabilization hit call (MAP4K2)	kinase-Nluc reporter destabilization hit call (MAPK1)	kinase-Nluc reporter destabilization hit call (MAPK4)	kinase-Nluc reporter destabilization hit call (MAPKAPK2)	kinase-Nluc reporter destabilization hit call (MKNK1)	kinase-Nluc reporter destabilization hit call (NTRK2)	kinase-Nluc reporter destabilization hit call (NTRK3)	kinase-Nluc reporter destabilization hit call (PAK4)	kinase-Nluc reporter destabilization hit call (PBK)	kinase-Nluc reporter destabilization hit call (PDGFRB)	kinase-Nluc reporter destabilization hit call (PDK1)
NC1=NCCN1CC(=O)O [Cyclocreatine] (10 µM)	inactive: 0	inactive: 0	inactive: 0	inactive: 0	inactive: 0	inactive: 0	inactive: 0	inactive: 0	inactive: 0	inactive: 0	inactive: 0	inactive: 0	inactive: 0	inactive: 0	inactive: 0	inactive: 0	inactive: 0	inactive: 0	inactive: 0	inactive: 0
Cc1cc2sc(NC(=O)Cc3ccccc3)nc2cc1Cl (10 µM)	inactive: 0	inactive: 0	inactive: 0	inactive: 0	inactive: 0	inactive: 0	inactive: 0	inactive: 0	inactive: 0	inactive: 0	inactive: 0	inactive: 0	inactive: 0	inactive: 0	inactive: 0	inactive: 0	inactive: 0	inactive: 0	inactive: 0	inactive: 0
CCCCCCCCCCCCCCCCOP(=O)([O-])OCC[N+](C)(C)C [Miltefosine] (10 µM)	inactive: 0	inactive: 0	inactive: 0	inactive: 0	inactive: 0	inactive: 0	inactive: 0	inactive: 0	inactive: 0	inactive: 0	inactive: 0	inactive: 0	inactive: 0	inactive: 0	inactive: 0	inactive: 0	inactive: 0	inactive: 0	inactive: 0	inactive: 0
CNc1cc(Nc2cccn(-c3ccccn3)c2=O)nn2c(C(=O)N[C@@H]3C[C@@H]3F)cnc12 (2.5 µM)	inactive: 0	inactive: 0	inactive: 0	inactive: 0	inactive: 0	inactive: 0	inactive: 0	inactive: 0	inactive: 0	inactive: 0	inactive: 0	inactive: 0	inactive: 0	inactive: 0	inactive: 0	inactive: 0	inactive: 0	inactive: 0	inactive: 0	inactive: 0
Cc1ccc(NC(=O)c2ccnc(C(F)(F)F)c2)cc1-c1cc(OCCO)nc(N2CCOCC2)c1 (10 µM)	inactive: 0	inactive: 0	inactive: 0	inactive: 0	inactive: 0	inactive: 0	inactive: 0	inactive: 0	inactive: 0	inactive: 0	inactive: 0	inactive: 0	inactive: 0	inactive: 0	inactive: 0	inactive: 0	inactive: 0	inactive: 0	inactive: 0	inactive: 0
CN1CCC(c2ccccc2CC(C)(C)Nc2nc(N3CCOCC3)nc(-n3c(C(F)F)nc4ccccc43)n2)CC1 [Zandelisib] (10 µM)	inactive: 0	inactive: 0	inactive: 0	inactive: 0	inactive: 0	inactive: 0	inactive: 0	inactive: 0	inactive: 0	inactive: 0	inactive: 0	inactive: 0	inactive: 0	inactive: 0	inactive: 0	inactive: 0	inactive: 0	inactive: 0	inactive: 0	inactive: 0
CCn1c(=O)c(-c2cc[nH]n2)cc2c(C)nc(N)nc21 [Voxtalisib] (10 µM)	inactive: 0	inactive: 0	inactive: 0	inactive: 0	inactive: 0	inactive: 0	inactive: 0	inactive: 0	inactive: 0	inactive: 0	inactive: 0	inactive: 0	inactive: 0	inactive: 0	inactive: 0	inactive: 0	inactive: 0	inactive: 0	inactive: 0	inactive: 0
CN(C)c1nc2c(Br)c(Br)c(Br)c(Br)c2[nH]1 (10 µM)	inactive: 0	inactive: 0	inactive: 0	inactive: 0	inactive: 0	inactive: 0	inactive: 0	inactive: 0	inactive: 0	inactive: 0	inactive: 0	inactive: 0	inactive: 0	inactive: 0	inactive: 0	inactive: 0	inactive: 0	inactive: 0	inactive: 0	inactive: 0
Oc1ccc(/C=C/c2cc(O)cc(O)c2)cc1 [Resveratrol] (10 µM)	inactive: 0	inactive: 0	inactive: 0	inactive: 0	inactive: 0	inactive: 0	inactive: 0	inactive: 0	inactive: 0	inactive: 0	inactive: 0	inactive: 0	inactive: 0	inactive: 0	inactive: 0	inactive: 0	inactive: 0	inactive: 0	inactive: 0	inactive: 0
COc1cc(N2CCOCC2)ccc1Nc1ncc(Cl)c(Nc2ccccc2NS(C)(=O)=O)n1 (2.5 µM)	inactive: 0	inactive: 0	inactive: 0	inactive: 0	inactive: 0	inactive: 0	inactive: 0	inactive: 0	inactive: 0	inactive: 0	inactive: 0	inactive: 0	inactive: 0	inactive: 0	inactive: 0	inactive: 0	inactive: 0	inactive: 0	inactive: 0	inactive: 0
NC(=S)n1[nH]c(-c2ccc([N+](=O)[O-])cc2)c(N=Nc2cccc(Cl)c2)c1=O (2.5 µM)	inactive: 0	inactive: 0	inactive: 0	inactive: 0	inactive: 0	inactive: 0	inactive: 0	inactive: 0	inactive: 0	inactive: 0	inactive: 0	inactive: 0	inactive: 0	inactive: 0	inactive: 0	inactive: 0	inactive: 0	inactive: 0	inactive: 0	inactive: 0
CC(C)=CCc1c(-c2ccc(O)cc2O)oc2c3c(cc(O)c2c1=O)OC(C)(C)C=C3 [Morusin] (2.5 µM)	inactive: 0	inactive: 0	inactive: 0	inactive: 0	inactive: 0	inactive: 0	inactive: 0	inactive: 0	inactive: 0	inactive: 0	inactive: 0	inactive: 0	inactive: 0	inactive: 0	inactive: 0	inactive: 0	inactive: 0	inactive: 0	inactive: 0	inactive: 0
COc1ccc(S(=O)(=O)NCc2ccc(C(=O)NCCc3ccc(Cl)cn3)cc2)cc1 (10 µM)	inactive: 0	inactive: 0	inactive: 0	inactive: 0	inactive: 0	inactive: 0	inactive: 0	inactive: 0	inactive: 0	inactive: 0	inactive: 0	inactive: 0	inactive: 0	inactive: 0	inactive: 0	inactive: 0	inactive: 0	inactive: 0	inactive: 0	inactive: 0
CN(C)S(=O)(=O)c1ccc2c(c1)/C(=C/c1cc3c([nH]1)CCCC3)C(=O)N2 (2.5 µM)	inactive: 0	inactive: 0	active: 1	inactive: 0	inactive: 0	inactive: 0	inactive: 0	inactive: 0	inactive: 0	inactive: 0	inactive: 0	inactive: 0	inactive: 0	inactive: 0	inactive: 0	inactive: 0	inactive: 0	inactive: 0	inactive: 0	inactive: 0
O=C1/C(=C\c2ccc(Cl)cc2)C=C(c2ccccc2)N1c1ccc(O)cc1 (2.5 µM)	inactive: 0	inactive: 0	inactive: 0	inactive: 0	inactive: 0	inactive: 0	inactive: 0	inactive: 0	inactive: 0	inactive: 0	inactive: 0	inactive: 0	inactive: 0	inactive: 0	inactive: 0	inactive: 0	inactive: 0	inactive: 0	inactive: 0	inactive: 0
COc1ccc(N=Nc2c(N)n[nH]c2N)cc1 (10 µM)	inactive: 0	inactive: 0	inactive: 0	inactive: 0	inactive: 0	inactive: 0	inactive: 0	inactive: 0	inactive: 0	inactive: 0	inactive: 0	inactive: 0	inactive: 0	inactive: 0	inactive: 0	inactive: 0	inactive: 0	inactive: 0	inactive: 0	inactive: 0
CCN(CC)c1cc2oc(=O)c(-c3nc4ccccc4o3)cc2cc1C (2.5 µM)	inactive: 0	inactive: 0	inactive: 0	inactive: 0	inactive: 0	inactive: 0	inactive: 0	inactive: 0	inactive: 0	inactive: 0	inactive: 0	inactive: 0	inactive: 0	inactive: 0	inactive: 0	inactive: 0	inactive: 0	inactive: 0	inactive: 0	inactive: 0
CC[C@@](C)(Nc1ccnc(-c2c[nH]c3ncccc23)n1)C(=O)NCC(F)(F)F [Decernotinib] (10 µM)	inactive: 0	inactive: 0	inactive: 0	inactive: 0	inactive: 0	inactive: 0	inactive: 0	inactive: 0	inactive: 0	inactive: 0	inactive: 0	inactive: 0	inactive: 0	inactive: 0	inactive: 0	inactive: 0	inactive: 0	inactive: 0	inactive: 0	inactive: 0
O=C1NC(=Nc2c(Cl)cccc2Cl)S/C1=C\c1ccc2nccnc2c1 (2.5 µM)	inactive: 0	inactive: 0	inactive: 0	inactive: 0	inactive: 0	inactive: 0	inactive: 0	inactive: 0	inactive: 0	inactive: 0	inactive: 0	inactive: 0	inactive: 0	inactive: 0	inactive: 0	active: 1	inactive: 0	inactive: 0	inactive: 0	inactive: 0

Laid out differently: results already given
SMILES,kinase-Nluc reporter destabilization hit call (IRAK3),kinase-Nluc reporter destabilization hit call (JAK1),kinase-Nluc reporter destabilization hit call (LCK),kinase-Nluc reporter destabilization hit call (LIMK1),kinase-Nluc reporter destabilization hit call (LIMK2),kinase-Nluc reporter destabilization hit call (LMTK2),kinase-Nluc reporter destabilization hit call (LYN),kinase-Nluc reporter destabilization hit call (MAP2K1),kinase-Nluc reporter destabilization hit call (MAP2K2),kinase-Nluc reporter destabilization hit call (MAP4K2),kinase-Nluc reporter destabilization hit call (MAPK1),kinase-Nluc reporter destabilization hit call (MAPK4),kinase-Nluc reporter destabilization hit call (MAPKAPK2),kinase-Nluc reporter destabilization hit call (MKNK1),kinase-Nluc reporter destabilization hit call (NTRK2),kinase-Nluc reporter destabilization hit call (NTRK3),kinase-Nluc reporter destabilization hit call (PAK4),kinase-Nluc reporter destabilization hit call (PBK),kinase-Nluc reporter destabilization hit call (PDGFRB),kinase-Nluc reporter destabilization hit call (PDK1)
NC(=S)n1[nH]c(-c2ccc([N+](=O)[O-])cc2)c(N=Nc2cccc(Cl)c2)c1=O (2.5 µM),inactive: 0,inactive: 0,inactive: 0,inactive: 0,inactive: 0,inactive: 0,inactive: 0,inactive: 0,inactive: 0,inactive: 0,inactive: 0,inactive: 0,inactive: 0,inactive: 0,inactive: 0,inactive: 0,inactive: 0,inactive: 0,inactive: 0,inactive: 0
CC(C)=CCc1c(-c2ccc(O)cc2O)oc2c3c(cc(O)c2c1=O)OC(C)(C)C=C3 [Morusin] (2.5 µM),inactive: 0,inactive: 0,inactive: 0,inactive: 0,inactive: 0,inactive: 0,inactive: 0,inactive: 0,inactive: 0,inactive: 0,inactive: 0,inactive: 0,inactive: 0,inactive: 0,inactive: 0,inactive: 0,inactive: 0,inactive: 0,inactive: 0,inactive: 0
